This assay addresses FlagBirA*-NRAS (human) (UniProt P01111). The experiment in a line: proximity ligation; Duolink PLA in methanol-fixed FlagBirA*-RAS T-REx 293 cells transfected with 3xHA-tagged candidate, tetracycline-induced; mouse anti-Flag and rabbit anti-HA; dots per cell, 100 cells; radius ~30 nm.

Chains of the proteins cited; added tags and fusions are not shown.
UniProt Q8TBC3: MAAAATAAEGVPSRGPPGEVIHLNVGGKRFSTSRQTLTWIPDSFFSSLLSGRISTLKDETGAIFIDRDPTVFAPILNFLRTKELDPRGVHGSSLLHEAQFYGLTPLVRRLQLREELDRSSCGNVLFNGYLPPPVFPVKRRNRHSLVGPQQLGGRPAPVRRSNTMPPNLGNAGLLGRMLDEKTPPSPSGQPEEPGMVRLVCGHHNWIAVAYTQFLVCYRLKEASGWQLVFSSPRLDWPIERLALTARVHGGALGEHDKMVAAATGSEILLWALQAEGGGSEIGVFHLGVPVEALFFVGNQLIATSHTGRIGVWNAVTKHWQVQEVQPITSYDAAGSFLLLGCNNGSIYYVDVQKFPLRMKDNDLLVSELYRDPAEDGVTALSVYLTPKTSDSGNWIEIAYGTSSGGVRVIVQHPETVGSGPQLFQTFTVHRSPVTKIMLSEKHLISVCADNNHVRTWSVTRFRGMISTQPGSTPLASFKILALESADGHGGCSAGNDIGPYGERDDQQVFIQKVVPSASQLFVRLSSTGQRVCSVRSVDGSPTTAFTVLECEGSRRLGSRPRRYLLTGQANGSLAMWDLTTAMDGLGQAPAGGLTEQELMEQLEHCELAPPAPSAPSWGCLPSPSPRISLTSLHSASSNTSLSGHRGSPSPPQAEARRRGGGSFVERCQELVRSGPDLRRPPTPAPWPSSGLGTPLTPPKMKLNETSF

These are yes or no findings as the source states them, for the method shown. Binding seen in cells or lysates may run through a third protein. Some entries that bind do so weakly or less than the wild type.

For HA-SHKBP1 (from UniProt Q8TBC3 1-707), the binding result is reported as “binds”.

These data come from article PMC7696408.
